Results are given in words; binding and its absence hold for the method and conditions named. Binding seen in cells or lysates may run through a third protein. Binding calls can cover weak binding; strength is not graded here.

Sequences of proteins named here, by UniProt entry; tags and fusion partners are left off. A change or cut given only in a name is not applied to a line headed by its entry.
UniProt Q9FXT6: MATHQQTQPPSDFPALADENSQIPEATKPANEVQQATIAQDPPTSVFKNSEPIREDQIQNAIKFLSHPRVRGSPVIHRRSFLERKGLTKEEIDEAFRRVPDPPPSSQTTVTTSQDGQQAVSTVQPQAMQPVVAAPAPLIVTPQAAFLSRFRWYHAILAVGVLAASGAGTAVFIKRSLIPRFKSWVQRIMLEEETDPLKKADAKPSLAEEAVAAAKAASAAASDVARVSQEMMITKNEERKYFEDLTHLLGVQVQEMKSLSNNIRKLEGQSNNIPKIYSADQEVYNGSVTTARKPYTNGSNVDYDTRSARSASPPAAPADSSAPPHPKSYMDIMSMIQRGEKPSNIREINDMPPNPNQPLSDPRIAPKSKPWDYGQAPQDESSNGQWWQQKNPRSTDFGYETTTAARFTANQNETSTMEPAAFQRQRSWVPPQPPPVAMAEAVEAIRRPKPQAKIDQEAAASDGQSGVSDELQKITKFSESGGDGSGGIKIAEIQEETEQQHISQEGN

This note sets out measurements from article PMC4065332, “PEX14 binding to Arabidopsis PEX5 has differential effects on PTS1 and PTS2 cargo occupancy of the receptor” (Febs Letters, 2014).

Test [1] addresses T1, PEX5 (1–728), recombinant Arabidopsis PEX5 (Arabidopsis thaliana) (UniProt Q9FMA3).
T1 sequence: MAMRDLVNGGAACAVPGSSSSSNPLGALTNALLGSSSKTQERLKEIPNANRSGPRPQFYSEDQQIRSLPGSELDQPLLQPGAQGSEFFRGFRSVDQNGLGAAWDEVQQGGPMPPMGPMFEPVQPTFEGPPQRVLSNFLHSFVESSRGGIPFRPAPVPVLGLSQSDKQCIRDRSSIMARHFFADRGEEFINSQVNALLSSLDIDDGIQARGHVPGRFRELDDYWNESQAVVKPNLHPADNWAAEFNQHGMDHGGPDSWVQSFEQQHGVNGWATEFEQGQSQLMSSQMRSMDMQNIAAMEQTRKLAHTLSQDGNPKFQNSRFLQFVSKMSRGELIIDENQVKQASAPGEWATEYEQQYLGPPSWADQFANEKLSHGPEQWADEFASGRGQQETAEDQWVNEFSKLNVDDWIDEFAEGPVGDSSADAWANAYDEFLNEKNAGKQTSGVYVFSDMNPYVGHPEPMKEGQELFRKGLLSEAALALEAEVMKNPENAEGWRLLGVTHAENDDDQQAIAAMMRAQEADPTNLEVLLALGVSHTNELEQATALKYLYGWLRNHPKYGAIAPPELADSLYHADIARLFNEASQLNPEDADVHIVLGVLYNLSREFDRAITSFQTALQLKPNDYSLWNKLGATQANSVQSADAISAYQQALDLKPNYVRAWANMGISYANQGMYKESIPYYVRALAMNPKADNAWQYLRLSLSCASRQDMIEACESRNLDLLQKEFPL
The experiment in a line: pull-down; Arabidopsis cytosolic fraction (~6 mg/mL, 500 μL) depleted on Ni–NTA, incubated with hexahistidine-tagged recombinant protein (33 μM in 50 μL PBS), 4 °C, 1 h; captured on Ni–NTA, washed with PBS, eluted with 1 M imidazole; immunoblots against PEX5, PEX7 and thiolase; only the target purified.

In test [2] the target is PEX14 (1–154), termed PEX14N (Arabidopsis thaliana) (UniProt Q9FXT6). The test is described as above.

Regarding “thiolase (PTS2 cargo; endogenous, Arabidopsis cytosol) (enzyme)”, in test [1], the binding result is recorded as “binds”.

B1: PEX7 (endogenous, Arabidopsis cytosol) (receptor, UniProt Q9XF57 1-317)
chain: MPVFKAPFNGYSVKFSPFYESRLAVATAQNFGILGNGRIHVLELAPGAPGVTESVSYDTADAVYDVCWSESHDSVLIAAIGDGSVKIYDTALPPPSNPIRSFQEHAREVQSVDYNPTRRDSFLTSSWDDTVKLWAMDRPASVRTFKEHAYCVYQAVWNPKHGDVFASASGDCTLRIWDVREPGSTMIIPAHDFEILSCDWNKYDDCILATSSVDKTVKVWDVRSYRVPLAVLNGHGYAVRKVKFSPHRRSLIASCSYDMSVCLWDYMVEDALVGRYDHHTEFAVGIDMSVLVEGLMASTGWDELVYVWQQGMDPRAS
Regarding B1, the binding result in test [2] is on record as “binds”.
